Test results: PMC12669770
No constants are given. Whether binding was seen depends on the method and setting. In cells and extracts the contact can be indirect. Here binding means that the protein was enriched with, or labelled near, the bait; the list need not be complete. For some of these results: A no says only that the protein was not detected with the bait.

By UniProt entry, the sequences of proteins in these tests, tags left out.
UniProt Q86T03: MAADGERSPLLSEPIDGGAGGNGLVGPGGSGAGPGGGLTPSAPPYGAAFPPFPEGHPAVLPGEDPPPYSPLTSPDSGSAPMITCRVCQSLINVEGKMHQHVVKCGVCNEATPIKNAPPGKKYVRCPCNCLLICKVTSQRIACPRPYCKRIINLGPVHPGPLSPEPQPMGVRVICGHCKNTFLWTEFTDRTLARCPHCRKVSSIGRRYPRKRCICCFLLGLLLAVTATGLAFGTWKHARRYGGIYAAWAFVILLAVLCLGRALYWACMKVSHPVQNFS
UniProt Q14534: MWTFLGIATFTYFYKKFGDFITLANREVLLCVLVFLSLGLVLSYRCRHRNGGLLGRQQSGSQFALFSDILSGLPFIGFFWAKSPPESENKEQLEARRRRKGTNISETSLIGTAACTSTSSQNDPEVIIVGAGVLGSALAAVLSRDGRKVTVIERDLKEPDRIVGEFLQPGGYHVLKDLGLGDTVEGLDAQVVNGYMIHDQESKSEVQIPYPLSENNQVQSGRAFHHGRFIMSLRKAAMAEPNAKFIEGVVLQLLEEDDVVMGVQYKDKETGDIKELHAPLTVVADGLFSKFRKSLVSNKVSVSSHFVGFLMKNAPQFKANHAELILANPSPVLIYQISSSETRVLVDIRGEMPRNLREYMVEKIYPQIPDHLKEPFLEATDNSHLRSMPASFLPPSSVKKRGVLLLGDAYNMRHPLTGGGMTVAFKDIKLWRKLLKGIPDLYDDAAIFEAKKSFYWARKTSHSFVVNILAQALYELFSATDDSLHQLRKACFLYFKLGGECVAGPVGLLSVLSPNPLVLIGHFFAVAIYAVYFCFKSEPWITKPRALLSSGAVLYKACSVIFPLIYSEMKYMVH

Legend:
[1] = target: V5-miniTurbo-mCherry-p62 (human) (UniProt Q13501); experiment: condition: only cells with endogenous ATG5 (no ATG5 knock-down); proximity labelling; miniTurbo-mCherry-p62 RPE1 cells with endogenous ATG5 (no knock-down); 500 µM biotin and 5 mM ATP for 2 h at 37 °C; streptavidin pull-down and mass spectrometry
[2] = target: V5-miniTurbo-mCherry-p62 (human) (UniProt Q13501); experiment: proximity labelling; miniTurbo-mCherry-p62 stably expressed in RPE1 cells, with or without 72 h ATG5 siRNA knock-down; 500 µM biotin and 5 mM ATP for 2 h at 37 °C; streptavidin pull-down and mass spectrometry; proteins found in the mCherry-p62 control removed

For ITPR2 (from UniProt Q14571 1-2701), the binding [1] was “no binding” and the binding [2] was “binds”.
In the case of PIP4P1 (from UniProt Q86T03 1-277), the binding [2] is reported as “binds”.
In the case of SQLE (from UniProt Q14534 1-574), the binding [2] is reported as “binds”.
